Measurements as given in PMC12218971.
Results are given in words; binding and its absence hold for the method and conditions named. In cells and extracts the contact can be indirect. Some results given as binding are weak or reduced against the parent protein; the word gives no strength. Where a sequence is shown, tags or fusion partners need not be part of it.

T1: Hsp22-3xFLAG (Drosophila) (UniProt P02515)
T1 sequence: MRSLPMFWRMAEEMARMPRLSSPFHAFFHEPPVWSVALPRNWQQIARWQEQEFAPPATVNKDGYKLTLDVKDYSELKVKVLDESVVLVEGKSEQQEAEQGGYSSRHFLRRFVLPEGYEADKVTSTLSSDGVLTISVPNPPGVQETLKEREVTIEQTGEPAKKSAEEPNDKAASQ


Molecular target: T1, Hsp22-3xFLAG (Drosophila)
Assay: co-IP; S2 cells expressing Hsp22-3xFLAG (bait) and a 5xMyc-tagged prey from one pAc5-STABLE-neo plasmid (T2A); M2 anti-FLAG agarose beads; Western blot with anti-FLAG and anti-Myc

Binder	binding
RFeSP-5xMyc (protein, UniProt Q9VQ29 36-230) AHTDLQVPDFSAYRRESVKDSRRRNDTAEERKAFSYLMVGAGAVGGAYAAKGLVNTFIGSMSASAEVLAMAKIEIKLSDIPEGKSVTFKWRGKPLFIRHRTAAEIETERNVPTSTLRDPEADDQRVIKPEWLVVIGVCTHLGCVPIANAGDWGGYYCPCHGSHYDASGRIRKGPAPLNLEVPTHEFPNEGLLVVG	binds
Fer1HCH-5xMyc (protein, UniProt Q7KRU8 20-205) DFKCSLAVPEITKDWVDMKDACIKGMRNQIQEEINASYQYLAMGAYFSRDTVNRPGFAEHFFKAAKEEREHGSKLVEYLSMRGQLTEGVSDLINVPTVAKQEWTDGAAALSDALDLEIKVTKSIRKLIQTCENKPYNHYHLVDYLTGVYLEEQLHGQRELAGKLTTLKKMMDTNGELGEFLFDKTL	binds
